Results are given in words; binding and its absence hold for the method and conditions named. In cells and extracts the contact can be indirect. These calls come from enrichment with a bait or labelling near it, and not all partners need be listed.
T1: Ubiquitin-specific protease 2 (human (endogenous in H1299 and A549)) (UniProt O75604)
T1 sequence: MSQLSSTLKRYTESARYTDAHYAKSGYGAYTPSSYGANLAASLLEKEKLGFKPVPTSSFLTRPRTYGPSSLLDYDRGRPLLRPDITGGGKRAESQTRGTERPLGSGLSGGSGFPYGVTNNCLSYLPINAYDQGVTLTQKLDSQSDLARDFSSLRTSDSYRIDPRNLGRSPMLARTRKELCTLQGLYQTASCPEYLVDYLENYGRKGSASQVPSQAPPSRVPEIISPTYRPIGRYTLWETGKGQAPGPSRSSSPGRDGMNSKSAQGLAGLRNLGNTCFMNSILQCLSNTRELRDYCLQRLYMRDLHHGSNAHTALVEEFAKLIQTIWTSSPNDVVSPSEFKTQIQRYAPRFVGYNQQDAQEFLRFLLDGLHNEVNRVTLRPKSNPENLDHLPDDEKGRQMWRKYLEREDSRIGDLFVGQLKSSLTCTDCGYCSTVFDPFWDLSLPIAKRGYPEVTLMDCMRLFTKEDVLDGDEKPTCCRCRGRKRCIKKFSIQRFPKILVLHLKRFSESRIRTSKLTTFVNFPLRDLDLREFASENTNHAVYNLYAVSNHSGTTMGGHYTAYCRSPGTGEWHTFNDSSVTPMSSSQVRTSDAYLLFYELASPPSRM

Sequences of proteins named here, by UniProt entry; tags and fusion partners are left off.
UniProt P51685: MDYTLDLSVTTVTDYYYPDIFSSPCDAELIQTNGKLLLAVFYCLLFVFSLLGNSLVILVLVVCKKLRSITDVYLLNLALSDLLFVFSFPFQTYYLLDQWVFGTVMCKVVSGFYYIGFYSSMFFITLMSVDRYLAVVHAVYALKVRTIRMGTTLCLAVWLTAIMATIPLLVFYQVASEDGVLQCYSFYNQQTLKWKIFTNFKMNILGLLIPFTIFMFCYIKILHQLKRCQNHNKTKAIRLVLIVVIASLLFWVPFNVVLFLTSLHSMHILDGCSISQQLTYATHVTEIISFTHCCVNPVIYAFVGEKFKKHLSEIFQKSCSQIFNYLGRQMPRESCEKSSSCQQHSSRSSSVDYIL
UniProt Q8IX90: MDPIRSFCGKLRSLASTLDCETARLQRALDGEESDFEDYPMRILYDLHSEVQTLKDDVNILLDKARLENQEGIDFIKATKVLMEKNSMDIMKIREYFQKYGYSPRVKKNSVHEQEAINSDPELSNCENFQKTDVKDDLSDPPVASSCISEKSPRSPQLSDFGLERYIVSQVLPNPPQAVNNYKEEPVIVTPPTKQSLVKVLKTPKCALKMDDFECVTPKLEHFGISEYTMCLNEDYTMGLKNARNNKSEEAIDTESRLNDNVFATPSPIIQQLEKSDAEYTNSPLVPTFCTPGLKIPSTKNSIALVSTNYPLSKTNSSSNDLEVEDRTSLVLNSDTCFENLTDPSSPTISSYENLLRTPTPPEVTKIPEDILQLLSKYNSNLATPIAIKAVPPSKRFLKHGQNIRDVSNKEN

B1: RTEL1 (protein, UniProt Q9NZ71 1-1219)
chain: MPKIVLNGVTVDFPFQPYKCQQEYMTKVLECLQQKVNGILESPTGTGKTLCLLCTTLAWREHLRDGISARKIAERAQGELFPDRALSSWGNAAAAAGDPIACYTDIPKIIYASRTHSQLTQVINELRNTSYRPKVCVLGSREQLCIHPEVKKQESNHLQIHLCRKKVASRSCHFYNNVEEKSLEQELASPILDIEDLVKSGSKHRVCPYYLSRNLKQQADIIFMPYNYLLDAKSRRAHNIDLKGTVVIFDEAHNVEKMCEESASFDLTPHDLASGLDVIDQVLEEQTKAAQQGEPHPEFSADSPSPGLNMELEDIAKLKMILLRLEGAIDAVELPGDDSGVTKPGSYIFELFAEAQITFQTKGCILDSLDQIIQHLAGRAGVFTNTAGLQKLADIIQIVFSVDPSEGSPGSPAGLGALQSYKVHIHPDAGHRRTAQRSDAWSTTAARKRGKVLSYWCFSPGHSMHELVRQGVRSLILTSGTLAPVSSFALEMQIPFPVCLENPHIIDKHQIWVGVVPRGPDGAQLSSAFDRRFSEECLSSLGKALGNIARVVPYGLLIFFPSYPVMEKSLEFWRARDLARKMEALKPLFVEPRSKGSFSETISAYYARVAAPGSTGATFLAVCRGKASEGLDFSDTNGRGVIVTGLPYPPRMDPRVVLKMQFLDEMKGQGGAGGQFLSGQEWYRQQASRAVNQAIGRVIRHRQDYGAVFLCDHRFAFADARAQLPSWVRPHVRVYDNFGHVIRDVAQFFRVAERTMPAPAPRATAPSVRGEDAVSEAKSPGPFFSTRKAKSLDLHVPSLKQRSSGSPAAGDPESSLCVEYEQEPVPARQRPRGLLAALEHSEQRAGSPGEEQAHSCSTLSLLSEKRPAEEPRGGRKKIRLVSHPEEPVAGAQTDRAKLFMVAVKQELSQANFATFTQALQDYKGSDDFAALAACLGPLFAEDPKKHNLLQGFYQFVRPHHKQQFEEVCIQLTGRGCGYRPEHSIPRRQRAQPVLDPTGRTAPDPKLTVSTAAAQQLDPQEHLNQGRPHLSPRPPPTGDPGSQPQWGSGVPRAGKQGQHAVSAYLADARRALGSAGCSQLLAALTAYKQDDDLDKVLAVLAALTTAKPEDFPLLHRFSMFVRPHHKQRFSQTCTDLTGRPYPGMEPPGPQEERLAVPPVLTHRAPQPGPSRSEKTGKTQSKISSFLRQRPAGTVGAGGEDAGPSQSSGPPHGPAASEWGL
B2: NPIPA3 (protein, UniProt F8WFD2 1-350)
chain: MFCCLGYEWLSGGCKTWHSAWVINTLADHRHRGTDFGGSPWLLIITVFLRSYKFAISLCTSYLCVSFLKTIFPSQNGHDGSTDVQQRARRSNRRRQEGIKIVLEDIFTLWRQVETKVRAKICKMKVTTKVNRHDKINGKRKTAKEHLRKLSMKEREHGEKERQVSEAEENGKLDMKEIHTYMEMFQRAQALRRRAEDYYRCKITPSARKPLCNRVRMAAAEHRHSSGLPYWPYLTAETLKNRMGHQPPPPTQQHSIIDNSLSLKTPPECLLTPLPPSALPSADDNLKTPAECLLYPLPPSADDNLKTPPECLLTPLPPSAPPSVDDNLKTPPKCVCSLPFHPQRMIISRN

The molecules below were run against T1, Ubiquitin-specific protease 2 (human (endogenous in H1299 and A549)) (assay: affinity purification with mass spectrometry; H1299 cell proteins immunoprecipitated with anti-USP2 antibody or control IgG, SDS-PAGE, LC-MS/MS (LTQ Orbitrap Elite)).

Row | binding | Molecule
1 | binds | CCR8 (from UniProt P51685 1-355) (receptor)
2 | binds | SKA3 (from UniProt Q8IX90 1-412)
3 | binds | B1
4 | binds | B2
